Assay results: the supplement of paper PMC10331698
± gives the standard deviation of the averaged measurements. Most entries show no effect beyond the scatter of the controls.

Experiments:
Assay in all cases: level (log10 ratio to DMSO vehicle control); higher = higher biomarker level / cell amount than vehicle control
[1] = compound: CC(C)(C)C(=O)CC(=O)C(F)(F)C(F)(F)C(F)(F)F [(Heptafluorobutanoyl)pivaloylmethane]; conditions: 2200 nM; in DMSO
Method: (§1)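 BioMAP Diversity Plus panel of 12 human primary cell co-culture systems (3C, 4H, LPS, SAg, BT, BF4T, BE3C, CASM3C, HDF3CGF, KF3CT, MyoF, Mphg). Compounds were added 1 h before stimulation and left for 24 h (MyoF 48 h; BT 72 h for soluble read-outs or 6 d for IgG). Biomarkers were read by ELISA, cytotoxicity by SRB, PBMC viability and proliferation by Alamar Blue. Each well value was divided by the mean of 8 DMSO control wells on the same plate and log10 transformed; duplicate blinded samples were tested at 4 concentrations.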

1-(Perfluorohexyl)octane = compound: CCCCCCCCC(F)(F)C(F)(F)C(F)(F)C(F)(F)C(F)(F)C(F)(F)F [1-(Perfluorohexyl)octane]; conditions: in DMSO
Method: as §1

[2] = compound: CCN(CCO)S(=O)(=O)C(F)(F)C(F)(F)C(F)(F)C(F)(F)C(F)(F)C(F)(F)C(F)(F)C(F)(F)F [N-Ethyl-N-(2-hydroxyethyl)perfluorooctanesulfonamide]; conditions: in DMSO
Method: as §1

[3] = compound: CN(C(=O)C(F)(F)C(F)(F)C(F)(F)F)[Si](C)(C)C [N-Methyl-N-trimethylsilylheptafluorobutyramide]; conditions: 2200 nM; in DMSO
Method: as §1

[4] = compound: Cc1ccc(S(=O)(=O)OCC(F)(F)C(F)(F)C(F)(F)C(F)(F)C(F)(F)C(F)F)cc1 [1H,1H,7H-Perfluoroheptyl 4-methylbenzenesulfonate]; conditions: 2200 nM; in DMSO
Method: as §1

[5] = compound: FC(F)(F)C(F)(F)C(F)(F)C(F)(F)C(F)(F)C(F)(F)CC1CO1 [3-(Perfluorohexyl)-1,2-epoxypropane]; conditions: 2200 nM; in DMSO
Method: as §1

Heptafluorobutyramide = compound: NC(=O)C(F)(F)C(F)(F)C(F)(F)F [Heptafluorobutyramide]; conditions: 2200 nM; in DMSO
Method: as §1

[6] = compound: NCC(F)(F)C(F)(F)C(F)(F)C(F)(F)C(F)(F)C(F)(F)C(F)(F)F [1H,1H-Perfluorooctylamine]; conditions: 2200 nM; in DMSO
Method: as §1

Octafluoroadipic acid = compound: O=C(O)C(F)(F)C(F)(F)C(F)(F)C(F)(F)C(=O)O [Octafluoroadipic acid]; conditions: 2200 nM; in DMSO
Method: as §1

[7] = compound: O=C(O)C(F)(F)C(F)(F)C(F)(F)C(F)(F)C(F)(F)C(F)(F)C(F)(F)C(F)(F)C(F)(F)C(F)F [11-H-Perfluoroundecanoic acid]; conditions: 2200 nM; in DMSO
Method: as §1

Perfluoroheptanoic acid = compound: O=C(O)C(F)(F)C(F)(F)C(F)(F)C(F)(F)C(F)(F)C(F)(F)F [Perfluoroheptanoic acid]; conditions: in DMSO
Method: as §1

Perfluoropentanoic acid = compound: O=C(O)C(F)(F)C(F)(F)C(F)(F)C(F)(F)F [Perfluoropentanoic acid]; conditions: in DMSO
Method: as §1

[8] = compound: O=C(O)C(F)(F)C(F)(F)C(F)(F)OC(F)(F)F [Perfluoro(4-methoxybutanoic) acid]; conditions: 2200 nM; in DMSO
Method: as §1

[9] = compound: O=S(=O)(O)CCC(F)(F)C(F)(F)C(F)(F)C(F)(F)C(F)(F)C(F)(F)C(F)(F)C(F)(F)F [8:2 Fluorotelomer sulfonic acid]; conditions: in DMSO
Method: as §1

1H,1H-Heptafluorobutanol = compound: OCC(F)(F)C(F)(F)C(F)(F)F [1H,1H-Heptafluorobutanol]; conditions: 2200 nM; in DMSO
Method: as §1

[10] = compound: OCCC(F)(F)C(F)(F)C(F)(F)C(F)(F)C(F)(F)C(F)(F)F [6:2 Fluorotelomer alcohol]; conditions: 2200 nM; in DMSO
Method: as §1

Row | Test System | level (log10) [1] | level (log10) (1-(Perfluorohexyl)octane; 740 nM) | level (log10) (1-(Perfluorohexyl)octane; 2200 nM) | level (log10) ([2]; 2200 nM) | level (log10) ([2]; 6700 nM) | level (log10) ([2]; 20000 nM) | level (log10) [3] | level (log10) [4] | level (log10) [5] | level (log10) (Heptafluorobutyramide) | level (log10) [6] | level (log10) (Octafluoroadipic acid) | level (log10) [7] | level (log10) (Perfluoroheptanoic acid; 2200 nM) | level (log10) (Perfluoroheptanoic acid; 6700 nM) | level (log10) (Perfluoroheptanoic acid; 20000 nM) | level (log10) (Perfluoroheptanoic acid; 60000 nM) | level (log10) (Perfluoropentanoic acid; 2200 nM) | level (log10) (Perfluoropentanoic acid; 6700 nM) | level (log10) (Perfluoropentanoic acid; 20000 nM) | level (log10) (Perfluoropentanoic acid; 60000 nM) | level (log10) [8] | level (log10) ([9]; 2200 nM) | level (log10) ([9]; 6700 nM) | level (log10) ([9]; 20000 nM) | level (log10) ([9]; 60000 nM) | level (log10) (1H,1H-Heptafluorobutanol) | level (log10) [10]
1 | MyoF:MMP-1 | 0.0275 ± 0.1 | -0.0035 ± 0.029 | -0.0105 ± 0.012 | 0.0075 ± 0.016 | 0.069 ± 0.021 | 0.426 ± 0.052 | -0.028 ± 0.017 | -0.0125 ± 0.015 | 0.007 ± 0.067 | 0.011 ± 0.021 | 0.021 ± 0.023 | -0.0015 ± 0.08 | -0.0065 ± 0.1 | 0.008 ± 0.05 | -0.0175 ± 0.0064 | -0.0245 ± 0.011 | 0.021 ± 0.061 | 0.0305 ± 0.076 | -0.009 ± 0.02 | -0.0215 ± 0.011 | 0.009 ± 0.071 | 0.009 ± 0.044 | -0.004 ± 0.064 | -0.0245 ± 0.043 | -0.0365 ± 0.028 | 0.0175 ± 0.005 | 0.0195 ± 0.063 | 0.0255 ± 0.091
2 | MyoF:PAI-I | -0.002 ± 0.013 | 0.0035 ± 0.00071 | 0.0015 ± 0.0035 | 0.0035 ± 0.005 | -0.0065 ± 0.0064 | -0.0085 ± 0.018 | 0.002 ± 0.028 | 0 ± 0.0042 | 0.01 ± 0.024 | 0.0005 ± 0.013 | -0.0065 ± 0.021 | -0.0055 ± 0.015 | 0.015 ± 0.021 | 0.006 ± 0.021 | 0 ± 0.016 | -0.0215 ± 0.023 | 0.0025 ± 0.018 | -0.005 ± 0.0014 | -0.0035 ± 0.00071 | 0.005 ± 0.0071 | 0.0075 ± 0.0021 | -0.006 ± 0.02 | 0.0055 ± 0.0035 | -0.008 ± 0.011 | -0.009 ± 0.0042 | 0.0185 ± 0.019 | 0.01 ± 0.0057 | -0.0005 ± 0.0035
3 | MyoF:SRB | 0.007 ± 0.017 | -0.0055 ± 0.018 | 0.009 ± 0.0042 | -0.005 ± 0.0085 | -0.0265 ± 0.00071 | -0.175 ± 0.07 | 0.006 ± 0.0071 | 0.0035 ± 0.005 | 0.0165 ± 0.029 | -0.0045 ± 0.005 | -0.0075 ± 0.005 | -0.001 ± 0.016 | 0.0095 ± 0.0078 | 0.01 ± 0.017 | -0.0005 ± 0.00071 | 0 ± 0.0085 | -0.003 ± 0.021 | 0.0025 ± 0.025 | 0.003 ± 0.0028 | -0.009 ± 0.0014 | -0.004 ± 0.0057 | -0.009 ± 0.014 | -0.0005 ± 0.00071 | -0.0005 ± 0.0021 | -0.009 ± 0.0014 | -0.0035 ± 0.0035 | 0.01 ± 0.0071 | 0.0045 ± 0.015
4 | MyoF:TIMP-1 | 0.0235 ± 0.054 | -0.002 ± 0.0028 | -0.0245 ± 0.0021 | -0.0425 ± 0.029 | -0.112 ± 0.011 | -0.0885 ± 0.0092 | -0.003 ± 0.037 | 0.0045 ± 0.016 | 0.014 ± 0.027 | -0.0515 ± 0.077 | -0.004 ± 0.0071 | -0.0425 ± 0.063 | 0.0205 ± 0.018 | 0.0085 ± 0.042 | -0.011 ± 0.0042 | 0.0225 ± 0.0021 | 0.0515 ± 0.0064 | -0.037 ± 0.017 | -0.0195 ± 0.023 | -0.043 ± 0.034 | -0.002 ± 0.042 | -0.045 ± 0.067 | -0.0315 ± 0.016 | -0.0185 ± 0.0035 | 0.0095 ± 0.021 | -0.008 ± 0.018 | 0.0035 ± 0.036 | 0.0065 ± 0.021
